Source: patent US20250296958A1, “GL[…] E[…]” (THE ADMINISTRATORS OF THE TULANE EDUCATIONAL FUND, priority 2022, published 2025)
Some entries share one result that the patent states for a list of compounds.

Assays:
[1] = tested on: male and female CD-1 mice; test: Tail flick (TF) antinociception test; assay type: in vivo; conditions: for TF % MPE at 3 hr: majority of animals, top 2 doses of A2, top dose of A1; for time until TF values returned to baseline: all doses, s.c.
Protocol: Tail Flick (TF): CD1 mice were used for this test. The latency to withdraw the tail from a heat source was automatically measured (IITC, Woodland Hills, CA). […] Percent Maximum Possible Effect (% MPE) was determined as [(latency-baseline latency)/(9-baseline latency)]*100.
Statistics/Data Analysis: Data were analyzed with […] PRISM software (GraphPad Software, San Diego CA).

male and female DBA mice = test: Hot plate (HP) antinociception test; conditions: s.c.

| SMILES | TF % MPE at 3 hr [1] | time until TF values returned to baseline [1] [h] | time of peak response, HP (male and female DBA mice) [min] | also measured |
| --- | --- | --- | --- | --- |
| NC(=O)[C@H](CO[C@@H]1O[C@H](CO)[C@@H](O)[C@H](O)[C@H]1O)NC(=O)[C@@H]1CCC(=O)NCCCC[C@@H](NC(=O)[C@@H](N)Cc2ccc(O)cc2)C(=O)N[C@@H](Cc2c[nH]c3ccccc23)C(=O)N[C@@H](Cc2ccccc2)C(=O)N1 [Analog A1, Tyr-c[D-Lys-Trp-Phe-Glu]-Ser(β-Glc)-NH2] | above 50 % MPE |  |  |  |
| NC(=O)[C@H](CO[C@@H]1O[C@H](CO)[C@@H](O[C@@H]2O[C@H](CO)[C@H](O)[C@H](O)[C@H]2O)[C@H](O)[C@H]1O)NC(=O)[C@@H]1CCC(=O)NCCCC[C@@H](NC(=O)[C@@H](N)Cc2ccc(O)cc2)C(=O)N[C@@H](Cc2c[nH]c3ccccc23)C(=O)N[C@@H](Cc2ccccc2)C(=O)N1 [Analog A2, Tyr-c[D-Lys-Trp-Phe-Glu]-Ser(β-Lact)-NH2] | above 50 % MPE |  |  | duration of TF antinociception ([1]; 1.8 mg/kg): ≥ 3 h |
| NC(=O)[C@H](CO[C@@H]1O[C@H](CO)[C@@H](O)[C@H](O)[C@H]1O)NC(=O)[C@H](CO[C@@H]1O[C@H](CO)[C@@H](O)[C@H](O)[C@H]1O)NC(=O)[C@@H]1CCC(=O)NCCCC[C@@H](NC(=O)[C@@H](N)Cc2ccc(O)cc2)C(=O)N[C@@H](Cc2c[nH]c3ccccc23)C(=O)N[C@@H](Cc2ccccc2)C(=O)N1 [Analog A7, Tyr-c[D-Lys-Trp-Phe-Glu]-Ser(β-Glc)-Ser(β-Glc)-NH2] |  |  |  | TF % MPE at the 5 hr maximum test time ([1]; top doses): > 50 % MPE |
| NC(=O)CNC(=O)[C@@H]1CCC(=O)NCCCC[C@@H](NC(=O)[C@@H](N)Cc2ccc(O)cc2)C(=O)N[C@@H](Cc2c[nH]c3ccccc23)C(=O)N[C@@H](Cc2ccccc2)C(=O)N1 [ZH853, reference compound] |  | ≤ 3 | 30 to 45 |  |
| CN1CC[C@]23c4c5ccc(O)c4O[C@H]2[C@@H](O)C=C[C@H]3[C@H]1C5 [morphine, reference compound] |  | ≤ 3 | 30 to 45 | duration of TF antinociception ([1]; 10 mg/kg): ≥ 3 h |
